PubChem BioAssay AID1259254 | NCATS | 2017

- Screen: 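Gene knock-downs that lead to re-replication, shown by excess G2 DNA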 (primary screen)
- Cell system: human HCT116 colorectal cancer cells
- Knock-down reagent: single siRNA against human genes
- Duration: 3 days
- Read-out: 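Imaged Hoechst DNA stain sorts each cell into a cycle phase by DNA amount; per plate, G2 fraction set to 0% for non-targeting and 100% for GMNN siRNA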
- Scale: G2 robust z-score and G2 cells, % of GMNN control: higher = more G2 cells, more excess DNA replication; raw share of cells in G2: higher = larger share of cells with G2 DNA content
- Active means: 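Active siRNAs have a G2 robust z of 5 or more median absolute deviations over the median, which in these data means about 38% or higher of GMNN control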
The whole screen tested about 59,000 reagents; below is an unselected part. About 1,550 of all reagents (2.6%) count as active. 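G2 share is only a proxy for re-replication; each gene was hit by three separate siRNAs, and active genes were retested.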 Raw values vary from plate to plate and are shown uncorrected. Not given: the amount of reagent.

Target gene	PubChem SID	G2 robust z-score	G2 cells, % of GMNN control	raw share of cells in G2 (%)	Outcome
KPNA4	SID160776354	-0.725	-2.13	4.27	inactive
KPNA4	SID160776355	-1.01	-4.14	4.11	inactive
KPNA4	SID160776356	0.513	6.57	6.61	inactive
LYRM4	SID160745666	0.423	5.94	6.69	inactive
LYRM4	SID160745667	-1.08	-4.61	2.26	inactive
LYRM4	SID160745668	0.0162	3.08	4.01	inactive
TXNRD1	SID160775970	0.0244	3.14	6.92	inactive
TXNRD1	SID160775980	-0.372	0.353	4.59	inactive
TXNRD1	SID160775991	-0.223	1.4	4.78	inactive
MICU3	SID160763780	-0.622	-1.41	2.61	inactive
MICU3	SID160763781	0.337	5.34	5.02	inactive
MICU3	SID160763782	-0.0744	2.44	4.38	inactive
GSTM1	SID160723815	-0.793	-2.61	3.24	inactive
GSTM1	SID160774652	0.8	8.59	8.96	inactive
GSTM1	SID160774653	2.5	20.6	12.5	inactive
NAT8B	SID160740854	-0.22	1.42	4.77	inactive
NAT8B	SID160740855	-0.128	2.07	4.59	inactive
NAT8B	SID160740856	-0.957	-3.77	4.24	inactive
ABO	SID160777201	0.419	5.91	6.73	inactive
ABO	SID160777211	-0.122	2.11	5.82	inactive
ABO	SID160777222	0.469	6.27	6.33	inactive
ANXA9	SID160719994	-0.195	1.59	5.28	inactive
ANXA9	SID160719995	0.723	8.05	8.09	inactive
ANXA9	SID160719996	0.777	8.43	8.37	inactive
NFX1	SID160778041	0.232	4.6	5.28	inactive
NFX1	SID160778042	-0.308	0.797	5.22	inactive
NFX1	SID160778043	-0.349	0.511	3.29	inactive
ESRRA	SID160761947	4.27	33	16.8	inactive
ESRRA	SID160761958	0.0626	3.41	5.72	inactive
ESRRA	SID160761967	0.82	8.74	6.85	inactive
NDUFAF1	SID160740061	0.0156	3.08	5.03	inactive
NDUFAF1	SID160740062	1.06	10.5	8.5	inactive
NDUFAF1	SID160740063	-0.263	1.12	3.61	inactive
LST1	SID160719499	-0.5	-0.547	4.89	inactive
LST1	SID160719500	0.189	4.3	5.6	inactive
LST1	SID160734931	-0.409	0.09	3.38	inactive

Part of the list above, reduced to “raw share of cells in G2 (%)”.
GSTM1 [SID160774652]	8.96
GSTM1 [SID160774653]	12.5
NAT8B [SID160740854]	4.77
NAT8B [SID160740855]	4.59

Additional records follow.
Target gene	PubChem SID	G2 robust z-score	G2 cells, % of GMNN control	raw share of cells in G2 (%)	Outcome
OR5D13	SID160766397	0.433	6.02	5.83	inactive
OR5D13	SID160766398	0.693	7.84	6.82	inactive
OR5D13	SID160766399	-0.32	0.716	4.94	inactive
RAET1E	SID160757404	0.804	8.62	8.32	inactive
RAET1E	SID160757405	-1.46	-7.29	2.48	inactive
RAET1E	SID160757406	-0.276	1.03	5.08	inactive
RFESD	SID160763909	0.947	9.63	8.72	inactive
RFESD	SID160763910	-0.492	-0.492	4.1	inactive
RFESD	SID160763911	1.51	13.6	11.8	inactive
LIMA1	SID160731376	-0.382	0.28	4.35	inactive
LIMA1	SID160740860	-0.058	2.56	4.78	inactive
LIMA1	SID160740862	-0.748	-2.29	4.91	inactive
SLC39A1	SID160730968	-0.231	1.34	4.43	inactive
SLC39A1	SID160738502	0.312	5.16	8.5	inactive
SLC39A1	SID160738503	-1.12	-4.94	2.55	inactive
LINC02458	SID160771470	-0.346	0.533	3.74	inactive
LINC02458	SID160771472	-0.905	-3.4	1.67	inactive
LINC02458	SID160771473	-0.601	-1.26	3.12	inactive
TUBBP5	SID160725612	-0.317	0.739	3.92	inactive
TUBBP5	SID160725613	2.85	23.1	11.6	inactive
TUBBP5	SID160725614	-0.604	-1.28	2.77	inactive
GUCY2C	SID160774743	6.48	48.6	24.2	active
GUCY2C	SID160774744	-0.59	-1.18	3.77	inactive
GUCY2C	SID160774745	0.593	7.14	7.64	inactive
IGSF5	SID160758904	0.157	4.07	5.19	inactive
IGSF5	SID160758905	0.507	6.53	4.93	inactive
IGSF5	SID160758906	0.269	4.86	4.76	inactive
CSMD1	SID160747803	-0.721	-2.11	3.66	inactive
CSMD1	SID160747804	-0.964	-3.82	2.9	inactive
CSMD1	SID160747805	0.0715	3.47	3.61	inactive
HOXB7	SID160775209	2.01	17.1	12.2	inactive
HOXB7	SID160775210	-0.971	-3.87	3.64	inactive
HOXB7	SID160775211	-1.04	-4.38	2.59	inactive
